± gives the standard deviation. This is a selection; strong and weak results do not stand in their true shares. Many entries were measured with a wide error. Some of the results follow.
Columns and labels:
[1] = test system: MILI (PIWIL2) piRISC loaded with L1MC piRNA (26 nt); assay: pre-steady-state target cleavage rate (min^-1); higher = faster piRNA-guided slicing of the target; conditions: guide: L1MC piRNA 5'p-UAACUAAAUACUAUGCAAGCUGUAGG
Method in brief: (§1)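 In HEPES–potassium acetate buffer at 33 °C, […] transcribed, DNA-blocked target RNA library was mixed with 1 nM active affinity-purified piRISC carrying one synthetic guide, with or without 500 nM GTSF1 partner protein, for 0–8 or 0–960 min. Uncleaved targets were sequenced and normalised to depth and to weakly complementary targets; three trials were pooled and k3 was capped at 0.0001 min^-1. The pre-steady-state cleavage rate followed from a burst-and-steady-state fit.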

[2] = test system: MIWI (PIWIL1) piRISC loaded with L1MC piRNA (30 nt); assay: as above; conditions: guide: L1MC piRNA 5'p-UAACUAAAUACUAUGCAAGCUGUAGGUCCU
Method in brief: as §1

[3] = test system: EfPiwi piRISC loaded with L1MC piRNA (26 nt); assay: pre-steady-state target cleavage rate (min^-1); guide: L1MC piRNA 5'p-UAACUAAAUACUAUGCAAGCUGUAGG; MIWI and MILI are mouse PIWI proteins and EfPiwi is from a freshwater sponge; tags in brackets are library labels; higher = faster piRNA-guided slicing of the target
Method in brief: as §1

[4] = auxiliary factor: 500 nM mouse GTSF1
[5] = auxiliary factor: none (no GTSF1)
[6] = auxiliary factor: 500 nM Ephydatia muelleri Gtsf1
[7] = auxiliary factor: none (no Gtsf1)

## UCCUGGAACAGCUUGCAUGAGUAUUUAGUUA
[1]; [4]
  pre-steady-state target cleavage rate: 0.00284 ± 0.0051
[1]; [5]
  pre-steady-state target cleavage rate: 0.00252 ± 0.0028
[2]; [4]
  pre-steady-state target cleavage rate: 0.00209 ± 0.0069
[2]; [5]
  pre-steady-state target cleavage rate: 0.000965 ± 0.0085
[3]; [6]
  pre-steady-state target cleavage rate: 0.00082 ± 0.0035
[3]; [7]
  pre-steady-state target cleavage rate: 0.000508 ± 0.013

## UCCUGCUACAGCUUGGUAAGUAUUUAGUUA
[1]; [4]
  pre-steady-state target cleavage rate: 0.131 ± 0.019
[1]; [5]
  pre-steady-state target cleavage rate: 0.00591 ± 0.0018
[2]; [4]
  pre-steady-state target cleavage rate: 0.0624 ± 0.011
[2]; [5]
  pre-steady-state target cleavage rate: 0.00206 ± 0.004
[3]; [6]
  pre-steady-state target cleavage rate: 0.00341 ± 0.0025
[3]; [7]
  pre-steady-state target cleavage rate: 0.000989 ± 0.0066

## UCCUGGAUGAGCUUGCAAUGUAUUUAGAAA
[1]; [4]
  pre-steady-state target cleavage rate: 0.00311 ± 0.004
[1]; [5]
  pre-steady-state target cleavage rate: 0.00127 ± 0.0058
[2]; [4]
  pre-steady-state target cleavage rate: 0.00157 ± 0.0059
[2]; [5]
  pre-steady-state target cleavage rate: 0.000522 ± 0.0051
[3]; [6]
  pre-steady-state target cleavage rate: 0.00115 ± 0.0059
[3]; [7]
  pre-steady-state target cleavage rate: 0.000563 ± 0.015

## UCCUGGAUGUCGAAGCAAAGUAUUAAGUUA
[1]; [4]
  pre-steady-state target cleavage rate: 0.000604 ± 0.012
[1]; [5]
  pre-steady-state target cleavage rate: 0.000462 ± 0.012
[2]; [4]
  pre-steady-state target cleavage rate: 0.000459 ± 0.022
[2]; [5]
  pre-steady-state target cleavage rate: 0.000607 ± 0.013
[3]; [6]
  pre-steady-state target cleavage rate: 0.000792 ± 0.0078
[3]; [7]
  pre-steady-state target cleavage rate: 0.000162 ± 0.037

## UCCUGGAUGUGCUUGCAUAGAUUUAGUUA
[1]; [4]
  pre-steady-state target cleavage rate: 0.00189 ± 0.0063
[1]; [5]
  pre-steady-state target cleavage rate: 0.00117 ± 0.0044
[2]; [4]
  pre-steady-state target cleavage rate: 0.00287 ± 0.0053
[2]; [5]
  pre-steady-state target cleavage rate: 0.00169 ± 0.004
[3]; [6]
  pre-steady-state target cleavage rate: 0.00126 ± 0.0046
[3]; [7]
  pre-steady-state target cleavage rate: 0.000721 ± 0.012

## UCCUGGAUGUGCUUGCAUAAGUAUUUAGUUA
[1]; [4]
  pre-steady-state target cleavage rate: 0.00245 ± 0.0046
[1]; [5]
  pre-steady-state target cleavage rate: 0.000994 ± 0.0061
[2]; [4]
  pre-steady-state target cleavage rate: 0.00185 ± 0.0058
[2]; [5]
  pre-steady-state target cleavage rate: 0.000977 ± 0.0075
[3]; [6]
  pre-steady-state target cleavage rate: 0.00155 ± 0.0026
[3]; [7]
  pre-steady-state target cleavage rate: 0.000286 ± 0.031

## UCCUGGAUGUCGAAGCCUAGUAUUUAGUUA
[1]; [4]
  pre-steady-state target cleavage rate: 0.00214 ± 0.0026
[1]; [5]
  pre-steady-state target cleavage rate: 0.000905 ± 0.0049
[2]; [4]
  pre-steady-state target cleavage rate: 0.000229 ± 0.028
[2]; [5]
  pre-steady-state target cleavage rate: 0.000234 ± 0.0093
[3]; [6]
  pre-steady-state target cleavage rate: 0.000264 ± 0.0097
[3]; [7]
  pre-steady-state target cleavage rate: 0.000256 ± 0.017

From the supplement of paper PMC10338343
